Like-named read-outs stand apart in the source and are kept apart here. These are yes or no findings as the source states them, for the method shown. In cells and extracts the contact can be indirect. Binding can be weak; no strength is given. For some assays here: Sequences can lack the tags named with a protein.

By UniProt entry, the sequences of proteins in these tests, tags left out. Where a name states a change or a piece, a line headed by the entry shows the natural chain unless it says otherwise.
UniProt Q9VVM7: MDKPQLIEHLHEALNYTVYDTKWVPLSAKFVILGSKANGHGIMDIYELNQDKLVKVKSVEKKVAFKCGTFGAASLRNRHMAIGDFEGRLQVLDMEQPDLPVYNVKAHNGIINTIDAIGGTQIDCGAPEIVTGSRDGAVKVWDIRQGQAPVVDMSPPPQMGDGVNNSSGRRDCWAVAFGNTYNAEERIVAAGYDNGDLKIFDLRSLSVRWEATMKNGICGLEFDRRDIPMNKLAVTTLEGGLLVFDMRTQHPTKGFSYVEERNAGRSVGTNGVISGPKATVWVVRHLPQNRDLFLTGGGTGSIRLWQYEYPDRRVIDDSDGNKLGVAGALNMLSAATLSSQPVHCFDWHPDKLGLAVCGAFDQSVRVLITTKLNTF
UniProt Q9V3E9: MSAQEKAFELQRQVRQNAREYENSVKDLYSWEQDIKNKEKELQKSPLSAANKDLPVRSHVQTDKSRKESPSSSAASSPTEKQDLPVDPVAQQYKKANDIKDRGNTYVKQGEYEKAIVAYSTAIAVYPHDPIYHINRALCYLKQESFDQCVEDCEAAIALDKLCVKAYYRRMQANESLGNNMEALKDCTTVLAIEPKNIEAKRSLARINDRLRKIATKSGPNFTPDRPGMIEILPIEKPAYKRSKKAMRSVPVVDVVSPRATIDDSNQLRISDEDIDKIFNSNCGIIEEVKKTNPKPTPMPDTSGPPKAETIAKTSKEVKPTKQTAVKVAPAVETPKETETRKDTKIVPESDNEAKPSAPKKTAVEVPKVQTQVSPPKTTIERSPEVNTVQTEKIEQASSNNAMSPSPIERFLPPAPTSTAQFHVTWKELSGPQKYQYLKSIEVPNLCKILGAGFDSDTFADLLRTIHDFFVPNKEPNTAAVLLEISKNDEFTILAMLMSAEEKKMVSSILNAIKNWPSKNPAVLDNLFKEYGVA

Assay [1] addresses Drosophila Wdr92, epitope-tagged (Drosophila melanogaster) (UniProt Q9VVM7). The assay can be described thus: co-IP; S2 cells transfected with FLAG-tagged and HA-tagged Drosophila proteins, anti-FLAG immunoprecipitation from cell extracts, blots probed with anti-HA and anti-FLAG; for Spag1 with and without overexpressed Pontin and Reptin.
For assay [2] the target is unchanged. The description is as above. The source holds these as a separate data set.

“Drosophila Rpap3/Spaghetti, epitope-tagged (from UniProt Q9V3E9)”: the binding entry in assay [1] is on record as “binds”.

B1: Drosophila Spag1/CG18472, epitope-tagged (protein, UniProt Q9VBA1 1-469)
chain: MEKEKKKSLLERYNIPIHYLDFAHVEKCTNAREMEKIVQILRSGEEGHYPDLQRCAEEKLKALKPDSKLFRYEEQIKQSTDLDKTELKPILDWTDAIKTKDNALNELKKVKQNLNLPSVRKLSKIDLEKESKTEKPKPAPKATSPSNTKNKEARIKSTDYRKWDKYDPDEEILRMDLNEERDQEQREKIISNHSKSVTTDKLQSERDSLYERLQAQLKNLSQLEKEQFAERHRLRGNESFKAKEYENAIEEYNCSIIYDPENAVHAYNNRAVAHLKLKKYFSAISDCQACLQIDPMNIKAHLRMAEAHNAEGKHLESLNVYKKLLDFEPDNAIAKKAVEKLTSMLGEVAPSSATRLIIEEIDPPQLKTSEPKKEAEKSEPTVVKKPEPVVSAKKPPPIKDYDLAELVKPNRMVKSNLVSAAEALGNKMQASKGGAPKKPQSPPMTPKETLLRLPQDNLNNSNKLLIQEI
Take B1: in assay [2], the binding entry is recorded as “binds”.

Values taken from paper PMC6028525.
